# Experimental data reported in the supplement of paper PMC8047044.
# Where a name gives a salt, the structure may show the parent alone. The list shows a part of the results. Many values rest on one well or one pass, so single values are uncertain.
# Test system: Neuro-2a
# Assay: neurite formation score, plate-normalized to DMSO control mean 5.04 (score (0-8 scale)); higher = more or longer neurites
# Settings: 10 µM
row,SMILES,neurite formation score
1,NC(=O)Nc1cc(-c2cccc(F)c2)sc1C(=O)N[C@H]1CCCNC1,2.52
2,CCS(=O)(=O)c1cccc(-c2cc(C(=O)NC3CCN(C)CC3)c(C)c3[nH]c4ncc(C)cc4c23)c1,0.41
3,Oc1ccc(-c2nc(-c3ccc(F)cc3)c(-c3ccncc3)[nH]2)cc1,4.88
4,COc1ccc(CNC(=O)Nc2ncc([N+](=O)[O-])s2)cc1,4.88
5,Cc1ccc(C(=O)Nc2ccc(CN3CCN(C)CC3)c(C(F)(F)F)c2)cc1C#Cc1cnc2cccnn12,-0.147
6,CCNc1nc(Nc2cc(F)c(C(=O)N3CCOCC3)cc2OC)ncc1C(F)(F)F,4.86
7,CNC(=O)c1cc(Oc2ccc(NC(=O)Nc3cc(C(C)(C)C)nn3-c3ccc4ncccc4c3)c(F)c2)ccn1 [DCC-2036 (Rebastinib)],1.76
8,Cn1cc(C2=C(c3ccc(Cl)cc3Cl)C(=O)NC2=O)c2ccccc21,4.76
9,CCn1nnc2c(N3CCOCC3)nc(-c3ccc(NC(=O)Nc4ccc(C(=O)N5CCN(C)CC5)cc4)cc3)nc21,3.09
10,Cc1cc(Nc2ncc(Cl)c(Nc3ccccc3S(=O)(=O)C(C)C)n2)c(OC(C)C)cc1C1CCNCC1,-0.147
11,CNC(=O)c1ccc(-c2cnc3ncc(Cc4ccc5ncccc5c4)n3n2)cc1F,3.76
12,Nc1nc(Nc2ccc3c(c2)CCC(N2CCCC2)CC3)nn1-c1cc2c(nn1)-c1ccccc1CCC2 (centres undefined),3.52
13,CCn1c(-c2nonc2N)nc2c(C#CC(C)(C)O)ncc(OC[C@H]3CCCNC3)c21,3.74
14,O=c1cc(-c2cccc3c2Sc2ccccc2S3)oc(N2CCOCC2)c1,2.08
15,O=C(NCc1ccccc1)c1csc(Nc2ccncn2)n1 [Thiazovivin],4.85
16,Cc1ccccc1-n1c(Cn2nc(-c3cccc(O)c3)c3c(N)ncnc32)nc2cccc(C)c2c1=O,3.86
17,C#Cc1cccc(Nc2ncnc3cc(OCCOC)c(OCCOC)cc23)c1 [Erlotinib Hydrochloride],4.85
18,CCOc1cc2ncc(C#N)c(Nc3ccc(OCc4ccccn4)c(Cl)c3)c2cc1NC(=O)/C=C/CN(C)C [Neratinib (HKI-272)],1.42
19,O=C(NOCC1CC1)c1ccc(F)c(F)c1Nc1ccc(I)cc1Cl,3.54
20,CC(=O)Nc1nc(C)c(-c2ccc(Cl)c(S(=O)(=O)NCCO)c2)s1,4.52

row,SMILES,neurite formation score
1,O=C(Cc1ccc(-c2ccc(OCCN3CCOCC3)cc2)cn1)NCc1ccccc1 [KX2-391 dihydrochloride],1.08
2,C[C@]1(O)C[C@@H](c2nc(-c3ccc4ccc(-c5ccccc5)nc4c3)c3c(N)nccn32)C1 [Linsitinib],3.85
3,C=CC(=O)Nc1ccc2ncnc(Nc3cccc(Br)c3)c2c1,5.88
4,CCC(=O)Nc1cccc(Oc2nc(Nc3ccc(N4CCN(C)CC4)cc3OC)ncc2Cl)c1,3.43
5,Cc1ccc(F)c(NC(=O)Nc2ccc(-c3cccc4[nH]nc(N)c34)cc2)c1 [Linifanib (ABT-869)],3.09
6,O=C1NC(=O)/C(=C/c2ccc3nccc(-c4ccncc4)c3c2)S1,1.42
7,CNC(=O)c1cc(Oc2ccc(NC(=O)c3cccc(C(F)(F)F)c3)cc2)ccn1,4.19
8,COc1cc(N2CCC(N)CC2)ccc1Nc1ncc(Cl)c(-c2c[nH]c3ccccc23)n1,1.09
9,NC(=O)c1ccc(-c2nc(-c3ccc4c(c3)OCCO4)c(-c3ccccn3)[nH]2)cc1,6.08
10,CO[C@H]1C[C@@H]2CC[C@@H](C)[C@@](O)(O2)C(=O)C(=O)N2CCCC[C@H]2C(=O)O[C@H]([C@H](C)C[C@@H]2CC[C@@H](O)[C@H](OC)C2)CC(=O)[C@H](C)/C=C(\C)[C@@H](O)[C@@H](OC)C(=O)[C@H](C)C[C@H](C)/C=C/C=C/C=C/1C [Rapamycin (Sirolimus)],4.19
11,COc1cc2nccc(Oc3ccc(NC(=O)Nc4cc(C)on4)c(Cl)c3)c2cc1OC [Tivozanib (AV-951)],0.876
12,Nc1ccc(-c2ccc3ncc4ccc(=O)n(-c5cccc(C(F)(F)F)c5)c4c3c2)cn1 [Torin 2],3.86
13,NC1(Cc2ccc(Cl)cc2)CCN(c2ncnc3[nH]ccc23)CC1,6.76
14,O=c1cc(N2CCOCC2)oc2c(-c3cccc4c3sc3ccccc34)cccc12,1.19
15,O=C(Cc1ccc(-c2ccc(OCCN3CCOCC3)cc2)cn1)NCc1ccccc1,-0.243
16,N#Cc1c(Oc2ccc(F)c(NC(=O)Cc3cccc(C(F)(F)F)c3)c2)ccc2nc(NC(=O)C3CC3)sc12,2.85
17,CCCCCCCCCCCCCCCCCCOP(=O)([O-])OC1CC[N+](C)(C)CC1 [Perifosine],-0.147
18,Cc1cc(C)c(/C=C2\C(=O)Nc3ccccc32)[nH]1,3.74
19,Cc1c(NC(=O)OC[C@@H]2COCCN2)cn2ncnc(Nc3ccc4c(cnn4Cc4cccc(F)c4)c3)c12,4.54

# A portion from the list above, for reference:
row,SMILES,neurite formation score
6,O=C1NC(=O)/C(=C/c2ccc3nccc(-c4ccncc4)c3c2)S1,1.42
7,CNC(=O)c1cc(Oc2ccc(NC(=O)c3cccc(C(F)(F)F)c3)cc2)ccn1,4.19
